# Laboratory results from the supplement of paper PMC8728848.
# The other results are listed elsewhere or left out.
# Experiments:
# Assay in all cases: glycan array binding signal (z-score within array); higher = stronger binding
# Conditions in all cases: glycan notation: IUPAC condensed, linker removed
# [1] = molecular target: Fuc(a1-3)[Gal(b1-4)]Glc6S
# Procedure, shortened: (§1)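 The Consortium for Functional Glycomics database supplied 3228 glycan arrays, of which those lacking an available protein sequence were dropped. The binding signal, a within-array Z-score, was averaged across arrays of the same protein sequence and across linkers. Negative scores can be read as non-binding.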
# [2] = molecular target: Fuc(a1-3)[Gal(b1-4)]GlcNAc
# Procedure, shortened: as §1
# [3] = molecular target: Fuc(a1-3)[Gal(b1-4)]GlcNAc(b1-2)Man
# Procedure, shortened: as §1
# [4] = molecular target: Fuc(a1-3)[Gal(b1-4)]GlcNAc(b1-2)Man(a1-3)[Fuc(a1-3)[Gal(b1-4)]GlcNAc(b1-2)Man(a1-6)]Man(b1-4)GlcNAc(b1-4)GlcNAc
# Procedure, shortened: as §1
# [5] = molecular target: Fuc(a1-3)[Gal(b1-4)]GlcNAc(b1-2)Man(a1-3)[Fuc(a1-3)[Gal(b1-4)]GlcNAc(b1-2)Man(a1-6)]Man(b1-4)GlcNAc(b1-4)[Fuc(a1-6)]GlcNAc
# Procedure, shortened: as §1
# [6] = molecular target: Fuc(a1-3)[Gal(b1-4)]GlcNAc(b1-3)Gal(b1-3)[Fuc(a1-4)]GlcNAc
# Procedure, shortened: as §1
# [7] = molecular target: Fuc(a1-3)[Gal(b1-4)]GlcNAc(b1-3)GalNAc
# Procedure, shortened: as §1
# [8] = molecular target: Fuc(a1-3)[Gal(b1-4)]GlcNAc(b1-4)Gal(b1-4)[Fuc(a1-3)]GlcNAc
# Procedure, shortened: as §1
# [9] = molecular target: Fuc(a1-3)[Gal(b1-4)]GlcNAc(b1-4)Gal(b1-4)[Fuc(a1-3)]GlcNAc(b1-4)Gal(b1-4)[Fuc(a1-3)]GlcNAc
# Procedure, shortened: as §1
# [10] = molecular target: Fuc(a1-3)[Gal(b1-4)]GlcNAc(b1-6)GalNAc
# Procedure, shortened: as §1
# [11] = molecular target: Fuc(a1-3)[Gal(b1-4)]GlcNAc(b1-6)[Gal(b1-3)GlcNAc(b1-3)]Gal(b1-4)Glc
# Procedure, shortened: as §1
# [12] = molecular target: Fuc(a1-3)[Gal(b1-4)]GlcNAc6S
# Procedure, shortened: as §1
# [13] = molecular target: Fuc(a1-3)[Gal3S(b1-4)]Glc
# Procedure, shortened: as §1
# [14] = molecular target: Fuc(a1-3)[Gal3S(b1-4)]GlcNAc
# Procedure, shortened: as §1
# [15] = molecular target: Fuc(a1-3)[Gal3S(b1-4)]GlcNAc6S
# Procedure, shortened: as §1
# [16] = molecular target: Fuc(a1-3)[GalNAc(b1-4)]GlcNAc
# Procedure, shortened: as §1
# [17] = molecular target: Fuc(a1-3)[GalNAc(b1-4)]GlcNAc6S
# Procedure, shortened: as §1
# Fuc(a1-4)GlcNAc = molecular target: Fuc(a1-4)GlcNAc
# Procedure, shortened: as §1
# Fuc(b1-3)GlcNAc = molecular target: Fuc(b1-3)GlcNAc
# Procedure, shortened: as §1
# Gal(a1-2)Gal = molecular target: Gal(a1-2)Gal
# Procedure, shortened: as §1
# Gal(a1-3)Gal = molecular target: Gal(a1-3)Gal
# Procedure, shortened: as §1
# Gal(a1-3)Gal(b1-3)GlcNAc = molecular target: Gal(a1-3)Gal(b1-3)GlcNAc
# Procedure, shortened: as §1
# [18] = molecular target: Gal(a1-3)Gal(b1-3)GlcNAc(b1-2)Man
# Procedure, shortened: as §1
# [19] = molecular target: Gal(a1-3)Gal(b1-3)GlcNAc(b1-2)Man(a1-3)[Gal(a1-3)Gal(b1-3)GlcNAc(b1-2)Man(a1-6)]Man(b1-4)GlcNAc(b1-4)GlcNAc
# Procedure, shortened: as §1
# [20] = molecular target: Gal(a1-3)Gal(b1-3)GlcNAc(b1-3)GalNAc
# Procedure, shortened: as §1
# [21] = molecular target: Gal(a1-3)Gal(b1-3)GlcNAc(b1-6)GalNAc
# Procedure, shortened: as §1
# [22] = molecular target: Gal(a1-3)Gal(b1-3)[Fuc(a1-4)]GlcNAc(b1-2)Man(a1-3)[Gal(a1-3)Gal(b1-3)[Fuc(a1-4)]GlcNAc(b1-2)Man(a1-6)]Man(b1-4)GlcNAc(b1-4)GlcNAc
# Procedure, shortened: as §1
# Gal(a1-3)Gal(b1-4)Glc = molecular target: Gal(a1-3)Gal(b1-4)Glc
# Procedure, shortened: as §1
# Gal(a1-3)Gal(b1-4)GlcNAc = molecular target: Gal(a1-3)Gal(b1-4)GlcNAc
# Procedure, shortened: as §1
# [23] = molecular target: Gal(a1-3)Gal(b1-4)GlcNAc(b1-2)Man
# Procedure, shortened: as §1
# [24] = molecular target: Gal(a1-3)Gal(b1-4)GlcNAc(b1-2)Man(a1-3)[Gal(a1-3)Gal(b1-4)GlcNAc(b1-2)Man(a1-6)]Man(b1-4)GlcNAc(b1-4)GlcNAc
# Procedure, shortened: as §1
# [25] = molecular target: Gal(a1-3)Gal(b1-4)GlcNAc(b1-3)GalNAc
# Procedure, shortened: as §1
# [26] = molecular target: Gal(a1-3)Gal(b1-4)GlcNAc(b1-6)GalNAc
# Procedure, shortened: as §1
# [27] = molecular target: Gal(a1-3)Gal(b1-4)[Fuc(a1-3)]GlcNAc
# Procedure, shortened: as §1
# [28] = molecular target: Gal(a1-3)Gal(b1-4)[Fuc(a1-3)]GlcNAc(b1-2)Man(a1-3)[Gal(a1-3)Gal(b1-4)[Fuc(a1-3)]GlcNAc(b1-2)Man(a1-6)]Man(b1-4)GlcNAc(b1-4)GlcNAc
# Procedure, shortened: as §1
# Gal(a1-3)GalNAc = molecular target: Gal(a1-3)GalNAc
# Procedure, shortened: as §1
# [29] = molecular target: Gal(a1-3)[Gal(a1-4)]Gal(b1-4)GlcNAc
# Procedure, shortened: as §1
# [30] = molecular target: Gal(a1-4)Gal(b1-3)GlcNAc(b1-2)Man(a1-3)[Gal(a1-4)Gal(b1-3)GlcNAc(b1-2)Man(a1-6)]Man(b1-4)GlcNAc(b1-4)GlcNAc
# Procedure, shortened: as §1
# Gal(a1-4)Gal(b1-4)Glc = molecular target: Gal(a1-4)Gal(b1-4)Glc
# Procedure, shortened: as §1
# Gal(a1-4)Gal(b1-4)GlcNAc = molecular target: Gal(a1-4)Gal(b1-4)GlcNAc
# Procedure, shortened: as §1
# [31] = molecular target: Gal(a1-4)Gal(b1-4)GlcNAc(b1-2)Man(a1-3)[Gal(a1-4)Gal(b1-4)GlcNAc(b1-2)Man(a1-6)]Man(b1-4)GlcNAc(b1-4)GlcNAc
# Procedure, shortened: as §1
# [32] = molecular target: Gal(a1-4)Gal(b1-4)GlcNAc(b1-3)Gal(b1-4)Glc
# Procedure, shortened: as §1
# Gal(a1-4)GlcNAc = molecular target: Gal(a1-4)GlcNAc
# Procedure, shortened: as §1
# Gal(a1-6)Glc = molecular target: Gal(a1-6)Glc
# Procedure, shortened: as §1
# Gal(b1-2)Gal = molecular target: Gal(b1-2)Gal
# Procedure, shortened: as §1
binder,measurement,setting,value
Pbx2CASH domain (Cryptococcus neoformans) (protein) GIPGPNRLYRLSGPIIFTAADQEIATYGYPTGSERAVLRVEGRNTATAIQGDCRRCARVSVKNLVVDGNRKKLGRMRDFQLATGLVVLGGNEGQSIQNSWIKNPRGFTAIHIREGDKLQCSGARVEKNEIGPVGEEYDPEKDGDDPEMSPLGRPLADGVSIACRDSFIRDNTFRDNTDAAIVVYCSPGTLIHA,glycan array binding signal (z-score),[1],-0.329
same,glycan array binding signal (z-score),[2],-0.361
same,glycan array binding signal (z-score),[3],-0.365
same,glycan array binding signal (z-score),[4],-0.141
same,glycan array binding signal (z-score),[5],0.103
same,glycan array binding signal (z-score),[6],-0.25
same,glycan array binding signal (z-score),[7],0.128
same,glycan array binding signal (z-score),[8],-0.152
same,glycan array binding signal (z-score),[9],-0.264
same,glycan array binding signal (z-score),[10],-0.167
same,glycan array binding signal (z-score),[11],-0.684
same,glycan array binding signal (z-score),[12],-0.189
same,glycan array binding signal (z-score),[13],0.042
same,glycan array binding signal (z-score),[14],-0.127
same,glycan array binding signal (z-score),[15],-0.329
same,glycan array binding signal (z-score),[16],-0.303
same,glycan array binding signal (z-score),[17],-0.22
same,glycan array binding signal (z-score),Fuc(a1-4)GlcNAc,-0.285
same,glycan array binding signal (z-score),Fuc(b1-3)GlcNAc,-0.36
same,glycan array binding signal (z-score),Gal(a1-2)Gal,-0.685
same,glycan array binding signal (z-score),Gal(a1-3)Gal,0.369
same,glycan array binding signal (z-score),Gal(a1-3)Gal(b1-3)GlcNAc,0.751
same,glycan array binding signal (z-score),[18],1.4
same,glycan array binding signal (z-score),[19],0.195
same,glycan array binding signal (z-score),[20],-0.375
same,glycan array binding signal (z-score),[21],-0.038
same,glycan array binding signal (z-score),[22],2.46
same,glycan array binding signal (z-score),Gal(a1-3)Gal(b1-4)Glc,0.23
same,glycan array binding signal (z-score),Gal(a1-3)Gal(b1-4)GlcNAc,-0.225
same,glycan array binding signal (z-score),[23],1.11
same,glycan array binding signal (z-score),[24],0.227
same,glycan array binding signal (z-score),[25],-0.615
same,glycan array binding signal (z-score),[26],-0.025
same,glycan array binding signal (z-score),[27],-0.429
same,glycan array binding signal (z-score),[28],1.84
same,glycan array binding signal (z-score),Gal(a1-3)GalNAc,-0.359
same,glycan array binding signal (z-score),[29],0.449
same,glycan array binding signal (z-score),[30],-0.475
same,glycan array binding signal (z-score),Gal(a1-4)Gal(b1-4)Glc,-0.357
same,glycan array binding signal (z-score),Gal(a1-4)Gal(b1-4)GlcNAc,-0.598
same,glycan array binding signal (z-score),[31],-0.205
same,glycan array binding signal (z-score),[32],-0.313
same,glycan array binding signal (z-score),Gal(a1-4)GlcNAc,-0.406
same,glycan array binding signal (z-score),Gal(a1-6)Glc,-0.008
same,glycan array binding signal (z-score),Gal(b1-2)Gal,-0.585

# Already shown: entries from further up.
binder,measurement,setting,value
Pbx2CASH domain (Cryptococcus neoformans) (protein) GIPGPNRLYRLSGPIIFTAADQEIATYGYPTGSERAVLRVEGRNTATAIQGDCRRCARVSVKNLVVDGNRKKLGRMRDFQLATGLVVLGGNEGQSIQNSWIKNPRGFTAIHIREGDKLQCSGARVEKNEIGPVGEEYDPEKDGDDPEMSPLGRPLADGVSIACRDSFIRDNTFRDNTDAAIVVYCSPGTLIHA,glycan array binding signal (z-score),[16],-0.303
same,glycan array binding signal (z-score),[17],-0.22
same,glycan array binding signal (z-score),Fuc(a1-4)GlcNAc,-0.285
same,glycan array binding signal (z-score),Fuc(b1-3)GlcNAc,-0.36
